One molecule from patent US20060127393A1 can be followed below.

The assay deals with rat Dkk-1 (rat). The assay can be described thus: BiaCore and KinExA.

These are yes or no findings as the source states them, for the method shown. Binding can be weak; no strength is given.

B1: 11H10 monoclonal antibody (rat) (antibody, IgG1, V domains shown)
VH: EVQLVESGGGLVQPANSLKLSCAASGFTFSDYAMAWVRQSPKKGLEWVATIIYDGSSTYYRDSVKGRFTISRDNAKSTLYLQMDSLRSEDTATYYCATGLGIATDYFDYWGQGVLVTVSS
VL: DIRMTQSPASLSASLGETVNIECLASEDIYSDLAWYQQKPGKSPQLLIYNANSLQNGVPSRFSGSGSGTQYSLKINSLQSEDVATYFCQQYNNYPPTFGGGTKLELKR
Consider B1, for which the binding result is recorded as “binds”.
